The source of these data is PMC11148069.

These are yes or no findings as the source states them, for the method shown. In cells and extracts the contact can be indirect. Binding can be weak; no strength is given.

This assay has as its target T1, Xenopus Nup93, endogenous (Xenopus (endogenous in egg extract)) (UniProt Q7ZX96).
T1 sequence: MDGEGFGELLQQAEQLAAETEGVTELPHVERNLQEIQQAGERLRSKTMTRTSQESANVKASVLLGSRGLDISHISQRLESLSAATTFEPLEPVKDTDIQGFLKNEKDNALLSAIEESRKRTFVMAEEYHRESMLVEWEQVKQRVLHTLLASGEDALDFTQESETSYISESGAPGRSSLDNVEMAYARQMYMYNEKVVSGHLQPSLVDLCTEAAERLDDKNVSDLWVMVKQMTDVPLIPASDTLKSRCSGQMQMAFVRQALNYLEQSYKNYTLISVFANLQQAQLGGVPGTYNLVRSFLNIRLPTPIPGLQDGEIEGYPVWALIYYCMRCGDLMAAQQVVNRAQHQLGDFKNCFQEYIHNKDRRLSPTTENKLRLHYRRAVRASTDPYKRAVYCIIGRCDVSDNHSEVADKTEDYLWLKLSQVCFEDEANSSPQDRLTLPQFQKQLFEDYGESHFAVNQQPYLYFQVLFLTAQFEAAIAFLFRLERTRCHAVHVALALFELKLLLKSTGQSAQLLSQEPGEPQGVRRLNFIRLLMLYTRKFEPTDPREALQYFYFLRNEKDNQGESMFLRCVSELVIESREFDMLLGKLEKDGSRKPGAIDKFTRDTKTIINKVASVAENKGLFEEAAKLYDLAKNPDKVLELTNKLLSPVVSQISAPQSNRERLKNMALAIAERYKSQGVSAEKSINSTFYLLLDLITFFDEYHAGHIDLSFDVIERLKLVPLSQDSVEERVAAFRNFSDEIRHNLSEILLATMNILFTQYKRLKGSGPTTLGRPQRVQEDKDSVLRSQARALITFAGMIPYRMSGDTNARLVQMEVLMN
Put plainly: pull-down; proteins co-purifying with the Nup that was captured by the immobilised nanobody from HeLa lysate or Xenopus egg extract; SDS-PAGE/Coomassie, identities confirmed by mass spectrometry.

On to Xenopus Nup188, endogenous, for which the binding result was “binds”.
Then Xenopus Nup205, endogenous, with “binds”.
